## Screening data, single-dose tests

The chains behind the UniProt entries cited, without tags or fusion partners. Residues count along the entry.
UniProt I6X8D2, whole entry: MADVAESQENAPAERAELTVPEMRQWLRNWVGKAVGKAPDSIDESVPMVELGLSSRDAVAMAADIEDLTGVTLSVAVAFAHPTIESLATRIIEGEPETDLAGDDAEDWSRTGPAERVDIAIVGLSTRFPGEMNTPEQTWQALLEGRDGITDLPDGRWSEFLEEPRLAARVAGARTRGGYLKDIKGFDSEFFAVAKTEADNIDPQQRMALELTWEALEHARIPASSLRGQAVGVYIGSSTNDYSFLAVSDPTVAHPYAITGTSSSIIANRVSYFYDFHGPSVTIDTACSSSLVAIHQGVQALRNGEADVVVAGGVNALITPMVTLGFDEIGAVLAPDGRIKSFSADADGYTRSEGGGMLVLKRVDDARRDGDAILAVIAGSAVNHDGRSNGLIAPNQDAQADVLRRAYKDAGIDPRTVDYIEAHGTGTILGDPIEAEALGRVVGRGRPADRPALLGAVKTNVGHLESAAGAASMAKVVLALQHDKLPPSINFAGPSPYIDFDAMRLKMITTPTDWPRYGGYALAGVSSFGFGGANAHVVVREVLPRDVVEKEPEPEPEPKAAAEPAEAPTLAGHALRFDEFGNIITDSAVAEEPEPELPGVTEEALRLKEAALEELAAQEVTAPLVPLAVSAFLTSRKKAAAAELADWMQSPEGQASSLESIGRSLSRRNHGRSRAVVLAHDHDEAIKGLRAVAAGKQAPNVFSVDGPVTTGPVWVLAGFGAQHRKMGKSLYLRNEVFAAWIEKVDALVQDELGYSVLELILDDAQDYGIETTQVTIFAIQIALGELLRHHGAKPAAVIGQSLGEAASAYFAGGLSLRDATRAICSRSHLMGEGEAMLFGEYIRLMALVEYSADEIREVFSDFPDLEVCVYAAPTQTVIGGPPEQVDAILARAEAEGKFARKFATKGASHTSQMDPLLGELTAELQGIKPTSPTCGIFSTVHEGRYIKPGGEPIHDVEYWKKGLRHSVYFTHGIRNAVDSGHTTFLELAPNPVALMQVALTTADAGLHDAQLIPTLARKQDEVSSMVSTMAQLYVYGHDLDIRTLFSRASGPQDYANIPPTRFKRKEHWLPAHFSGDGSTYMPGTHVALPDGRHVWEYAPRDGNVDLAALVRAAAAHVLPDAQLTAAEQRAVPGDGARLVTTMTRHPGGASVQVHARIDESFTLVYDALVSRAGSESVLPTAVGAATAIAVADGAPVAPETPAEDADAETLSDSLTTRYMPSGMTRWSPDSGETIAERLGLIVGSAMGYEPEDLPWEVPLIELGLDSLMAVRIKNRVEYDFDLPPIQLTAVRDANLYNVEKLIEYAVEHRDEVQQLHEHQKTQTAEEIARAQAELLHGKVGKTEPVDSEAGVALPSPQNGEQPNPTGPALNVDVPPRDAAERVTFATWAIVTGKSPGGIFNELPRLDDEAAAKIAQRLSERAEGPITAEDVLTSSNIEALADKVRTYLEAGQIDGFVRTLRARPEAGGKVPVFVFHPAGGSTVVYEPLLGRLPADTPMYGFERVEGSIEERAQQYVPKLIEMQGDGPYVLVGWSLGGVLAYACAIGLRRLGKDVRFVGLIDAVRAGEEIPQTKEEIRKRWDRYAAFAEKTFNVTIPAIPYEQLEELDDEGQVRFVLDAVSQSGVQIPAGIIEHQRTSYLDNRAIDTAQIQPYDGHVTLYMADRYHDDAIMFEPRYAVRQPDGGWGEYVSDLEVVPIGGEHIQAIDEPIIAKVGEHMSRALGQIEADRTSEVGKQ
UniProt A4I591, 1-473: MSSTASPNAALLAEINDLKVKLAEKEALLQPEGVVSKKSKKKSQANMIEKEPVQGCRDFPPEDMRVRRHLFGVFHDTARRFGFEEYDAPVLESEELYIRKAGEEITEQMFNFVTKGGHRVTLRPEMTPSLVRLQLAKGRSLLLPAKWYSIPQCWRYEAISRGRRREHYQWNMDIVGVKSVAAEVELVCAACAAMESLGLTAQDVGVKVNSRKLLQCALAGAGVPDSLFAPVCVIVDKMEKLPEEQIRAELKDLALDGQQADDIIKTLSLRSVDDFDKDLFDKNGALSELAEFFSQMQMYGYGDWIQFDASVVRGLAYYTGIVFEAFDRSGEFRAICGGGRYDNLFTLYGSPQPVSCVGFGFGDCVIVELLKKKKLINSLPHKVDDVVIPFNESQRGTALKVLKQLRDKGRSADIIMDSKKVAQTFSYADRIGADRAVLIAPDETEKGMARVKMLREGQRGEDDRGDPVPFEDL

Pks13 thioesterase: 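Enzyme assay of the thioesterase domain of polyketide synthase 13; the read-out is not stated. Target: Polyketide synthase Pks13, Mycobacterium tuberculosis (UniProt I6X8D2). Compounds at 30 µM. The record gives no direction; the compounds picked for IC50 retests had high values, so higher reads as stronger inhibition. Of about 67,000 compounds tested this way, about 300 (0.46%) reached 50% or more in at least one test.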
LiHisRS: 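Enzyme assay of histidyl-tRNA synthetase; the read-out is not stated. Target: Histidine-tRNA ligase, Leishmania infantum (UniProt A4I591). Tested at 30 µM. The record gives no direction; compounds that gave an IC50 in retests scored well above the rest, so higher reads as stronger inhibition. The assay is labelled LdHisRS but filed under L. infantum. About 69,000 compounds were tested under these conditions; 0.6% (about 410) showed 50% or more at least once.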

Each number is a percent effect as filed. How 0% and 100% were set is not recorded. Most values in the screen are low, and negative values occur. The compounds are a random part of those screened. A dash means the value is not listed here; it may have been measured.

structure	Pks13 thioesterase	LiHisRS
CN(C)[C@@H]1C[C@@H](CO)N(C(=O)Nc2ccc(SC(F)(F)F)cc2)C1	-9.209	-773.8
CC(C)SCCNC(=O)c1cccc2ccnn12	7.077	12.82
Cn1ccc(C(=O)N2CCCC(Cc3cccc4ncccc34)C2)n1 (centres undefined)	-23.19	27.78
CC(C)(C)n1cc(C(=O)N2CCN(Cc3ccsc3)CC2)cn1	-8.973	26.4
Cc1ccc(CN2CCc3nnc(COCCN(C)C)n3CC2)o1	-5.323	6.944
CCc1noc(CS(=O)(=O)CC=C(C)C)n1	-17.29	17.02
COCCOc1ccc(CNc2cnc3ccccc3n2)cn1	8.356	12.24
O=C1CN(c2ccc(CNC(=O)Nc3nnc(C4CC4)s3)cc2)CCN1	-8.458	36.28
c1ccc(-c2ncc(CN3CCCCC3CCn3cccn3)cn2)nc1 (centres undefined)	-33.28	13.98
N#Cc1nccnc1NC1CCN(c2ccccc2Br)C1 (centres undefined)	3.61	19.33
Cc1cc(C(=O)N2CCN(c3nc4c(F)cccc4s3)CC2)no1	-15.93	15.22
CC(C)n1ccc(-c2cc(C(=O)N3CCCC3)c3ccccn23)n1	7.003	1.504
CC(C)OCCCN(Cc1ccncc1)Cc1cccc(F)c1F	14.16	20
CCC(Nc1nc(C)nc2onc(C)c12)c1cccs1 (centres undefined)	9.905	0.8333
O=C(Nc1cc(CCC2CCN(CCO)CC2)ccn1)c1ccccn1	-37.79	0
O=C(c1cnccn1)N1C[C@@H](OCc2cccnc2)[C@H]2OCCC[C@H]21	-6.054	-1.818
COCCN(Cc1ccc(C)cc1)Cc1c[nH]cn1	-	10.53
Cc1nc(C)c(C)c(N2CCC(O)(c3ccc(F)cc3)CC2)n1	5.936	11.48
O=C(O)c1nnn(Cc2cccc(C(F)(F)F)c2)c1-c1ccccn1	-0.369	1.667
Cc1cc(-c2ccccc2Cl)nc(N)n1	-4.429	8.197
Cc1ccc(-c2ncc(C(=O)NS(C)(=O)=O)s2)c(C)c1	1.714	-0.8772
N#CC1(C(=O)N2CCOC(c3ccc(F)cc3)C2)CCCCC1 (centres undefined)	-28.29	16.85
Cc1nn(C)c(C)c1C1CCCN1C(=O)c1ccc(CN(C)C)cc1 (centres undefined)	-18.82	24.62
OCc1csc(N2CCCC(CO)(Cc3cccc(Cl)c3)C2)n1 (centres undefined)	22.66	22.35
CC(C)(C)c1n[nH]c(C2CN(C(=O)Cn3ccccc3=O)CCO2)n1 (centres undefined)	0.834	10.53
CCc1ccc(C(=O)N2CCC(c3nncn3CC)CC2)cc1	-15.41	20
CCNC(=O)NC[C@H]1COCc2nc3cc(C)ccc3n21	-	14.86
CCN(CC)S(=O)(=O)N(Cc1ccccn1)Cc1ccccc1C	18.31	22.45
CN(C)CCNC(=O)c1ccc(OC2CCN(C3CCC3)CC2)c(Cl)c1	-41.5	6.557
COc1ccc(C2CCCCCN2S(C)(=O)=O)cc1 (centres undefined)	-14.58	1.77
Cc1nc(CC(=O)N2CCc3nnc(N(C)C)cc3C2)cs1	-13.95	15.74
CN(c1ccncn1)C1CC2(CCN(C(=O)c3cccn3C)C2)C1 (centres undefined)	18.95	18.84
Cc1ccc(NCc2cn3c(n2)CN(Cc2ccoc2)CC3)nn1	17.69	-2
O=C(Nc1ccccn1)c1ccc(F)c(S(=O)(=O)NC2CC2)c1	-20.7	4.145
CCc1ncc(C(=O)NCC2CCN(Cc3ccncc3)CC2)cn1	-12.17	22.86
Cc1nc(C2CCCN(C(=O)c3cc(Cl)c[nH]3)C2)sc1C (centres undefined)	0.1779	9.649
COc1c(CNC2CCN(C(=O)C(C)C)CC2)c(C(C)C)nn1C	-16.67	-2.679
CN1CCOC[C@H]1c1nc(-c2ccccc2)c[nH]1	-	22.22
Cc1cccc(N2CCC(NCc3cnc(C4CCC4)s3)CC2)n1	18.82	-8.333
CC1CC2(CCN(C(=O)c3c[nH]cn3)CC2)c2ccccc21 (centres undefined)	11.59	5.769
Cn1c(CCNc2nccnc2C#N)nc2cc(Cl)ccc21	-11.5	24.66
O=C1CCC(c2nc(C3CCN(C(=O)C4CC4)CC3)no2)N1 (centres undefined)	-10.7	6.711
CN1CC(Oc2ccccc2)=NC(SCC(=O)Nc2ccc(Cl)cc2)=N1	-40.89	32.35
CC(=O)c1ccc(N2CCC(CO)(CCOc3ccccc3)CC2)nc1	8.134	12.26

The first 3 entries again:

{"structure": "CN(C)[C@@H]1C[C@@H](CO)N(C(=O)Nc2ccc(SC(F)(F)F)cc2)C1", "Pks13 thioesterase": -9.209, "LiHisRS": -773.8}
{"structure": "CC(C)SCCNC(=O)c1cccc2ccnn12", "Pks13 thioesterase": 7.077, "LiHisRS": 12.82}
{"structure": "Cn1ccc(C(=O)N2CCCC(Cc3cccc4ncccc34)C2)n1", "stereo": "centres undefined", "Pks13 thioesterase": -23.19, "LiHisRS": 27.78}

From ChEMBL document CHEMBL3988442, “University of Dundee, Small-Polar-MMV Screening Library” (2021).